Test results: patent publication US20170226507A1, “COORDINATE CONTROL OF PATHOGENIC SIGNALING BY THE MIR-130/301 FAMILY IN PULMONARY HYPERTENSION AND FIBROPROLIFERATIVE DISEASES” (The Brigham and Women's Hospital, Inc., priority 2014, published 2017)
Entries after “also recorded” stand apart in the source; their conditions may differ. For at least one compound, name, drawing or mass did not settle the structure.

Assays:
STAT3 = STAT3 phosphorylation in PASMCs (conditioned media from PAECs or endothelin-1; immunoblot); type: cell-based, human; details: conditioned media from miR-130a PAECs; rosiglitazone in PAECs; ambrisentan 10 μM on PASMCs
Experimental: (§1) (FIG. 40A) A schematic diagram of co-culture experiments: conditioned media from transfected PAECs (miRNA, anti-miRNA, tiny-LNA or siRNA under normoxic or hypoxic conditions) were filtered and applied onto naïve PASMCs cultured in matrigel. At specific times, PASMCs or PASMC-matrigel cultures were arrested and analyzed for STAT3 activation (phosphorylation) or contraction, respectively.
(§2) 50000 PASMC were embedded in 100 ul of matrix gel as previous described (Gagiolli et al) and plated into well of a 96 well plate. After 1 h at 37° C., these matrices were overlaid with 100 ul of conditioned PAECs serum-free medium (transfected with siRNA, miRNA or anti-miRNA and supplemented with Ambriesentan 10 uM). Every 12 h, medium was changed and at day 4 the gels were photographed and the relative diameter of the well and the gel were measured using ImageJ. The percentage contraction was calculated using the formula 100*(well diameter−gel diamter)/well diameter. For the co-culture experiment, conditioned media from PAEC transfected as indicated were applied on PASMCs or Fibroblast previously starved (24 h). Cells were collected at different time and analyzed by western blotting.
(§3) Cells were lysed in RIPA buffer (Santa Cruz Biotechnology) and the protein concentration determined using a Bradford assay (Biorad). […]

PASMCs [1] = test: Contraction assay of PASMCs in matrigel; type: cell-based, human; details: conditioned media from transfected PAECs; rosiglitazone in PAECs; ambrisentan on PASMCs
Experimental: as §1, §2

[2] = tested on: pulmonary tissue and pulmonary vasculature of mice; test: Forced expression of miR-130a in mouse lung (SU5416, intrapharyngeal mimic) with or without rosiglitazone or BAPN
endothelin-1 = test: Quantification of endothelin-1 by ELISA in conditioned media of PAECs; type: cell-based, human; details: rosiglitazone 10 μM
Experimental: Twenty-four hours after transfection PAECs were washed in PBS, and medium was replaced by media without serum. Twenty-four hour later conditioned media from PAEC transfected as indicated were collected and endothelin-1 was measured by ELISA kit (Enzo biosciences) according to the manufacturer's protocol. Human plasma sample (see below) and mouse plasma were also tested for endothelin-1 level by ELISA.

PAECs = test: Gene/miRNA expression in transfected or drug-treated PAECs (immunoblotting, RT-qPCR); type: cell-based, human; details: PAECs transfected with miR-130a, rosiglitazone 10 μM 24 h vs DMSO
Description: (§4) Pre-miRNA oligonucleotides (pre-miR-130a, pre-miR-204, pre-miR-424, and pre-miR-503 and negative control pre-miR-NC1 and premiR-NC2, Life Technologies), anti-miRNAs oligonucleotides (anti-miR-130a and anti-miR-NC, ThermoScientific), tiny LNA oligonucleotides (tiny-130: 5′-[…]-3′ (SEQ ID NO: 3), and tiny-NC 5′-[…]-3′ (SEQ ID NO: 51), Exiqon), siRNAs (PPARγ and scrambled control, Santa Cruz Biotechnology; HIF-1α, HIF-2α, and scrambled control, Life Technologies) were commercially purchased. PAECs and PASMCs were plated and transfected 24 h later at 70-80% confluence using pre-miRNA (5 nM), anti-miRNA (20 nM), tiny-LNA (20 nM) or siRNA (25 nM) with Lipofectamine 2000 reagent (Life Technologies), according to the manufacturers' instructions.
Primary human pulmonary arterial endothelial cells (PAECs) were purchased and propagated in EGM-2 cell culture media (Lonza). Experiments were performed at passages 3 to 6. Primary human pulmonary arterial smooth muscle cells (PASMCs) were purchased and propagated in SmGM-2 cell culture media (Lonza). Experiments were performed at passages 3 to 9. HEK293T cells (American Type Culture Collection) were used and cultivated in DMEM containing 10% fetal bovine serum (FBS). Cells were cultured at 37° C. in a humidified 5% CO2 atmosphere. A modular hypoxia chamber at 0.2% oxygen, 94.8% nitrogen and 5% carbon dioxide was used during 24 h for hypoxic conditions. Cultured cells were exposed to recombinant human IL-1α at 10 ng·mL-1 (Peprotech). Recombinant human IL-6 (Peprotech) was used at 100 ng·mL-1. Rosiglitazone (Sigma) was used at 10 μM.
(§5) Mature miRNA expression was evaluated using TaqMan MicroRNA Assays (Life Technologies/Applied Biosystems) and the Applied Biosystems 7900HT Fast Real Time PCR device (Life Technologies/Applied Biosystems). Expression levels were normalized to RNU48 or snoR55 for human or mouse experiments, respectively, and calculated using the comparative Ct method (2^−ΔΔCt) as we previously described (1).
(§6) Messenger RNAs were reverse transcribed using the Multiscript RT kit (Life Technologies) to generate cDNA. cDNA was amplified via fluorescently labeled Taqman primer sets using an Applied Biosystems 7900HT Fast Real Time PCR device, as we previously described (1). Fold-change of RNA species was calculated using the formula (2^−ΔΔCt), normalized to actin expression.
Cells were lysed in RIPA buffer (Santa Cruz Biotechnology) and the protein concentration determined using a Bradford assay (Biorad). Protein lysate ([…]) were resolved by SDS-PAGE and transferred onto a PVDF membrane (Biorad). Membranes were blocked in 5% non-fat milk in TN buffer (50 mM Tris-HCl pH 7.4, 150 mM NaCl) and incubated in the presence of the primary and then secondary antibodies. […]

PASMCs [3] = test: Gene/miRNA expression in transfected or drug-treated PASMCs (immunoblotting, RT-qPCR); type: cell-based, human
Description: as §4
Primary human pulmonary arterial endothelial cells (PAECs) were purchased and propagated in EGM-2 cell culture media (Lonza). Experiments were performed at passages 3 to 6. Primary human pulmonary arterial smooth muscle cells (PASMCs) were purchased and propagated in SmGM-2 cell culture media (Lonza). Experiments were performed at passages 3 to 9. […]
as §5, §6, §3

[4] = rosiglitazone or BAPN on top of miR-130a

Row | SMILES | miR-130a-dependent increase of STAT3 phosphorylation in PASMCs (STAT3) | actinomyosin contraction of PASMCs (PASMCs [1]) | density of pulmonary arterioles ([2]; CD31 stain, vessels <100 μm, rosiglitazone on top of miR-130a) | endothelin-1 in plasma ([2]; ELISA, rosiglitazone on top of miR-130a) | EDN1 in pulmonary vessels ([2]; IHC, <100 μm vessels, rosiglitazone on top of miR-130a) | miR-204, miR-322 and miR-503 expression in whole lung ([2]; RT-qPCR, rosiglitazone on top of miR-130a) | right ventricular systolic pressure (RVSP) ([2]; SU5416 mice, miR-130a 1 nmol x4, rosiglitazone 20 mg/kg daily oral or BAPN 30 mg/kg/day on top of miR-130a) | miR-130a-dependent gene expression changes and most histologic and hemodynamic alterations ([2]; rosiglitazone 20 mg/kg/day oral gavage) | percentage of muscularized small pulmonary arterioles [2, 4] | right ventricular remodeling, RV/(LV+S) mass ratio [2, 4] | secreted EDN1 levels in conditioned media (endothelin-1) | miR-130a-dependent alteration in transcript expression of VEGFA (PAECs) | miR-130a-dependent alterations in transcript expression of CCND1, CDKN1A, CDKN2A, CDKN1B (PAECs) | miR-130a-dependent alterations in transcript expression of NOS3 and EDN1 (PAECs) | miR-130a-dependent alterations in PPARγ, APLN, miR-424, miR-503 and FGF2 (PAECs; transcript and protein) | miR-130a-dependent alterations in PPARγ, STAT3 and miR-204 (PASMCs [3]; PASMCs transfected with miR-130a, rosiglitazone 10 μM 24 h vs DMSO) | miR-130a-dependent alterations in transcript expression of CCND1, CDKN1A, CDKN2A, CDKN1B (PASMCs [3]; PASMCs transfected with miR-130a, rosiglitazone 10 μM vs DMSO) | miR-130a-dependent alterations of NFATC2 and PIM1 (PASMCs [3]; PASMCs, rosiglitazone 10 μM 24 h vs DMSO)
1 | COC(c1ccccc1)(c1ccccc1)[C@H](Oc1nc(C)cc(C)n1)C(=O)O [ambrisentan] | abolished; also recorded: prevented STAT3 activation | abolished | – | – | – | – | – | – | – | – | – | – | – | – | – | – | – | –
2 | CN(CCOc1ccc(CC2SC(=O)NC2=O)cc1)c1ccccn1 (centres unmarked) [rosiglitazone] | reversed | reversed | reversed | reversed to baseline level | reversed | reversed | reversed | reversed | reversed to baseline levels | non-statistically significant trend toward reversal | decreased | but not VEGFA | reversed | reversed | reversed; also recorded: rescued | reversed | reversed | reversed
